Experimental data published in US20250177448A1, “NEW USE OF PEG-PHOSPHOLIPID MOLECULES” (ICOAT MEDICAL AB, priority 2022, published 2025).
No dose or concentration is given here for some results.

System: CCRF-CEM cells
Experiment: Detachment (retention time) of FAM-PEG-phospholipid from CCRF-CEM cells in vitro
Format: cell-based

N-(methylpolyoxyethylene oxycarbonyl)-1,2-dipalmitoyl-sn-glycero-3-phosphoethanolamine [PEG-phospholipid]
time after which PEG-phospholipid detached fully in vitro: 48 h
